# Measured values published in PMC7819943, “Rice protein-binding microarrays: a tool to detect cis-acting elements near promoter regions in rice”.
# The other results are listed elsewhere or left out.
# Molecular target: T1, OsSMF1 (Oryza sativa, UniProt Q6ZLB0 1-436)
# T1 sequence: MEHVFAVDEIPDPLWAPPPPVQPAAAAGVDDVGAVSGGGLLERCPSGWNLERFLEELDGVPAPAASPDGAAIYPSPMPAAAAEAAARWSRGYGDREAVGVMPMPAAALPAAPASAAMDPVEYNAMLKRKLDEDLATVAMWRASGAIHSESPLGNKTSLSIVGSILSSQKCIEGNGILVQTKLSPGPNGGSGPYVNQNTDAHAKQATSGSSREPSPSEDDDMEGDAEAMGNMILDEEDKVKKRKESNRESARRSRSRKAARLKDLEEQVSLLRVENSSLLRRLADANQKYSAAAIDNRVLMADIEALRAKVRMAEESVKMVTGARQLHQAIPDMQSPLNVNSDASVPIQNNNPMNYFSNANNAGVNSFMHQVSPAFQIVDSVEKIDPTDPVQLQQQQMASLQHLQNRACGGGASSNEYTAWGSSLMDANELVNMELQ
# Experiment: protein-binding microarray (RPBM); PBS, 2% BSA, 51.3 ng/ul salmon testes DNA, 50 uM zinc acetate, 200 nM TF, 25 C, 1 h; high values mean tight binding
# Conditions: protein: recombinant; tags: N-terminal polyhistidine and DsRed monomer fusion (pET32a); chain copies: 2; label: CyDye5-dUTP incorporated in the synthesized complementary strand; 3' TTTTT single-stranded linker to array surface; dsDNA, one strand shown
# Method in brief: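 In PBS with 2% BSA, salmon testes DNA and 50 µM zinc acetate, 200 nM protein was incubated on a custom Agilent array at 25 °C for 1 h and then washed off. The array had been made double-stranded by primer extension with Cy5-dUTP and blocked with 2% BSA. The proteins were transcription factors fused N-terminally to polyhistidine and DsRed, expressed in E. coli BL21-CodonPlus and purified on Ni–NTA. The binding signal is per-feature fluorescence intensity (arbitrary units) from an Axon 4000B scanner.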
row,Sequence,binding signal
1,GGTTCTGAATACCAATGCACGTCAATATTGTACCTTAGCTCGGAGTCACCTAGTGCAG,4130 fluorescence intensity (a.u.)
2,CCTTCTTCTTTTGCGGTTGCGCGAGCACGTCGGTCGTGCGCGGAGTCACCTAGTGCAG,4220 fluorescence intensity (a.u.)
3,TATATATATACTCCTACGTAGGAACCAAGCGTATACGTACCGGAGTCACCTAGTGCAG,3850 fluorescence intensity (a.u.)
4,CGACGCCAAGTACGTGTAGACACACGAGGAGACGGTCGCTCGGAGTCACCTAGTGCAG,3490 fluorescence intensity (a.u.)
5,CTTGTACTCTTTTCTCTCTACACAGTCAGGCACATCACTGCGGAGTCACCTAGTGCAG,4800 fluorescence intensity (a.u.)
6,ATACTGAGTTATGTAGAGATACATTGTCATTATAGTTATGCGGAGTCACCTAGTGCAG,4050 fluorescence intensity (a.u.)
7,TATAATTGCTACGTAAGCGCCACGTCAATGCCATGTCAGACGGAGTCACCTAGTGCAG,15700 fluorescence intensity (a.u.)
8,TTAACGTAAGGAGCAGATGATGTGGAAGAGATAAGCGAGTCGGAGTCACCTAGTGCAG,3470 fluorescence intensity (a.u.)
9,AGATTGTACTTTATACCACGTACACGCGTAAAAGTCATCCCGGAGTCACCTAGTGCAG,4370 fluorescence intensity (a.u.)
10,TATTAAAACTTGGCCGACAGGAAGCACGTGGCGCCGGTGGCGGAGTCACCTAGTGCAG,6170 fluorescence intensity (a.u.)
11,GGCTCCACTTCAACAACTTGCACACAAGCTCCAAGCAACGCGGAGTCACCTAGTGCAG,4640 fluorescence intensity (a.u.)
12,GGAAGCAACAAGTGGAGGCATCGGACCAAACATTTCATCCCGGAGTCACCTAGTGCAG,11000 fluorescence intensity (a.u.)
13,TGTTCGTCGCCGCCATCCCACTGACTACCTCGACATAGTTCGGAGTCACCTAGTGCAG,3900 fluorescence intensity (a.u.)
14,ATGTCAGTGACACATGAGACTCCTCCTCCGTGCTCCGTAACGGAGTCACCTAGTGCAG,3660 fluorescence intensity (a.u.)
15,AAGGCGCCACGTGGCACTAACGGCTATTTGACCGTTCAAACGGAGTCACCTAGTGCAG,21300 fluorescence intensity (a.u.)
16,CCCTTCGTCGACACGCACCCCTGACCTCATATTTTCGCTTCGGAGTCACCTAGTGCAG,5650 fluorescence intensity (a.u.)
17,ACTAGGGTACCAGGGTAACAGGTATTAGCCTGGTAACCAACGGAGTCACCTAGTGCAG,3480 fluorescence intensity (a.u.)
18,GTACATGCATACTGCTAAGACTATAACTAACATGGTTATTCGGAGTCACCTAGTGCAG,23000 fluorescence intensity (a.u.)
19,GCCTTGTCACCAGTCATCAGTCCACTCATCCCCATGCCCCCGGAGTCACCTAGTGCAG,5050 fluorescence intensity (a.u.)
20,GGAAGGCGTTTGATGTGGCAAAACTCATTGGGTCACTGTGCGGAGTCACCTAGTGCAG,5920 fluorescence intensity (a.u.)
21,TATAATTGATGTACATCGATGATTAATTCTCTAACAGATCCGGAGTCACCTAGTGCAG,29700 fluorescence intensity (a.u.)
22,ATTATGTTACGTTGTTTCGCTGTGTCACACATGTACCAGACGGAGTCACCTAGTGCAG,5720 fluorescence intensity (a.u.)
23,GGGTGGGCGTGATGGAGTTGGGTCGGCCGGGGTGTCCGGTCGGAGTCACCTAGTGCAG,3220 fluorescence intensity (a.u.)
24,AGAGAGCAGTGGAGTGCTGTCAGCCGTTGGATGGCCATCCCGGAGTCACCTAGTGCAG,3400 fluorescence intensity (a.u.)
25,ACATCATCGGCTACGTCAGGTCCAGCGCCGCCGCCAAGGCCGGAGTCACCTAGTGCAG,6640 fluorescence intensity (a.u.)
26,CACTTTCTGAACCTCTGAATTTTGTGGCTGCACACTGAAACGGAGTCACCTAGTGCAG,3480 fluorescence intensity (a.u.)
27,GCCGGCCTGGGAGGCCGAAGGTTGGGGATGACAGGTGGGGCGGAGTCACCTAGTGCAG,3160 fluorescence intensity (a.u.)

row,Sequence,binding signal
1,AGGGCAAAATTTGATAGAGCTTTTAGAATCCCAAACATCACGGAGTCACCTAGTGCAG,29400 fluorescence intensity (a.u.)
2,CGAAGTGCTTGGCCCCGAACCGGTGCGTGTACCGCCCCTGCGGAGTCACCTAGTGCAG,6160 fluorescence intensity (a.u.)
3,CACGAGTGCCTCTCCGTCATGCTCCACGACAGCTGCAGCCCGGAGTCACCTAGTGCAG,4760 fluorescence intensity (a.u.)
4,GACCAGCGCGGGAGGCGAGCTCGGCGGCTGACGCAGAAGACGGAGTCACCTAGTGCAG,3230 fluorescence intensity (a.u.)
5,TGAAAATTTGATATATCATTTGCAACGTGGATAAATGAGACGGAGTCACCTAGTGCAG,4130 fluorescence intensity (a.u.)
6,TCTGTTGACATGGCATCTCTGGACATTGCTGATCAGTGTGCGGAGTCACCTAGTGCAG,6710 fluorescence intensity (a.u.)
7,CCACGTCGACGGCCTCACCGTGTCCGGCGGCACCCTCGACCGGAGTCACCTAGTGCAG,18400 fluorescence intensity (a.u.)
8,GTGCCGGGGTGCCTAACCCAGTGACGCACCGAGCCGGGTTCGGAGTCACCTAGTGCAG,3570 fluorescence intensity (a.u.)
9,TGGCGCGGTGGGCGCGGGCATTCTGCGTCATCCGCTTCGACGGAGTCACCTAGTGCAG,7020 fluorescence intensity (a.u.)
10,GTATATCTTCAAAGGTGACAGTGCTGACAGCTTCTTGGCACGGAGTCACCTAGTGCAG,3760 fluorescence intensity (a.u.)
11,TATGTTAGCGGTTCTCATTGAGAGAGCTAAATGCGATGGTCGGAGTCACCTAGTGCAG,3350 fluorescence intensity (a.u.)
12,CTCCTCCGCCGCAACGTTCGCCGCATCCACGCGTCGGCGCCGGAGTCACCTAGTGCAG,5120 fluorescence intensity (a.u.)
13,GTCCCGTATGCATGCAACTAGACAACCAAGATAGTCATCACGGAGTCACCTAGTGCAG,7030 fluorescence intensity (a.u.)
14,ATTATATTATGTGTTTTATTTATTTTATTAGCAACGTGGACGGAGTCACCTAGTGCAG,4170 fluorescence intensity (a.u.)
15,TTACTCGGATGCAGCTGTTATGGTGGAAGGGGATTGATGACGGAGTCACCTAGTGCAG,3190 fluorescence intensity (a.u.)
16,GAGCGTACGTTTCAACGCCAACTCATTGCCGCGGTTGCGTCGGAGTCACCTAGTGCAG,3590 fluorescence intensity (a.u.)
17,TGCACATATGTATCACACTACCGTGTCACTCTGTCAATACCGGAGTCACCTAGTGCAG,5280 fluorescence intensity (a.u.)
18,AATGGGAGTGGCATCGTTTAGTGGTGATGGTGTGGCATCACGGAGTCACCTAGTGCAG,3520 fluorescence intensity (a.u.)
19,CTGATCCACATCGACTACATCGAGGCCATCCGGCGGCTCCCGGAGTCACCTAGTGCAG,3220 fluorescence intensity (a.u.)
20,CATCACTCCATACAAACAACAAGAACACAACACACTTGATCGGAGTCACCTAGTGCAG,20700 fluorescence intensity (a.u.)
21,AAACTGACATGATCCGATCAACATGATATATAGGCTAGCCCGGAGTCACCTAGTGCAG,3180 fluorescence intensity (a.u.)
22,TTCTGTTTGGAGTTAGACTTTTGGTCTGTTTCTTGGGTTGCGGAGTCACCTAGTGCAG,4460 fluorescence intensity (a.u.)
23,GCTAGCTATTCTGAGTCTTCTGACTCAGCATTCTTCTGCTCGGAGTCACCTAGTGCAG,33700 fluorescence intensity (a.u.)
24,TGTATATATGCATGCGCCAAGGACAGGTCATTAGCTTCTTCGGAGTCACCTAGTGCAG,3670 fluorescence intensity (a.u.)
25,ACGACAGCGTAATGCCGGATTCAACAAGCAAGTCAGCAGCCGGAGTCACCTAGTGCAG,4140 fluorescence intensity (a.u.)
26,CCACCTACGGCGCATGCCGTCTGCCACGTAGAGCCCACCGCGGAGTCACCTAGTGCAG,8720 fluorescence intensity (a.u.)
27,GTATCTAGATTTATGGCATAAACATACATGTAGCTATATTCGGAGTCACCTAGTGCAG,3910 fluorescence intensity (a.u.)

# At a glance, some entries already given:
row,Sequence,binding signal
10,GTATATCTTCAAAGGTGACAGTGCTGACAGCTTCTTGGCACGGAGTCACCTAGTGCAG,3760 fluorescence intensity (a.u.)
11,TATGTTAGCGGTTCTCATTGAGAGAGCTAAATGCGATGGTCGGAGTCACCTAGTGCAG,3350 fluorescence intensity (a.u.)
12,CTCCTCCGCCGCAACGTTCGCCGCATCCACGCGTCGGCGCCGGAGTCACCTAGTGCAG,5120 fluorescence intensity (a.u.)
13,GTCCCGTATGCATGCAACTAGACAACCAAGATAGTCATCACGGAGTCACCTAGTGCAG,7030 fluorescence intensity (a.u.)
14,ATTATATTATGTGTTTTATTTATTTTATTAGCAACGTGGACGGAGTCACCTAGTGCAG,4170 fluorescence intensity (a.u.)
15,TTACTCGGATGCAGCTGTTATGGTGGAAGGGGATTGATGACGGAGTCACCTAGTGCAG,3190 fluorescence intensity (a.u.)
16,GAGCGTACGTTTCAACGCCAACTCATTGCCGCGGTTGCGTCGGAGTCACCTAGTGCAG,3590 fluorescence intensity (a.u.)
17,TGCACATATGTATCACACTACCGTGTCACTCTGTCAATACCGGAGTCACCTAGTGCAG,5280 fluorescence intensity (a.u.)
18,AATGGGAGTGGCATCGTTTAGTGGTGATGGTGTGGCATCACGGAGTCACCTAGTGCAG,3520 fluorescence intensity (a.u.)
19,CTGATCCACATCGACTACATCGAGGCCATCCGGCGGCTCCCGGAGTCACCTAGTGCAG,3220 fluorescence intensity (a.u.)
20,CATCACTCCATACAAACAACAAGAACACAACACACTTGATCGGAGTCACCTAGTGCAG,20700 fluorescence intensity (a.u.)
21,AAACTGACATGATCCGATCAACATGATATATAGGCTAGCCCGGAGTCACCTAGTGCAG,3180 fluorescence intensity (a.u.)
22,TTCTGTTTGGAGTTAGACTTTTGGTCTGTTTCTTGGGTTGCGGAGTCACCTAGTGCAG,4460 fluorescence intensity (a.u.)
